For one molecule, binding results are on record in US20260035452A1, “NOVEL INTERLEUKIN-17A (IL-17A)-DERIVED PEPTIDE AND NEUTRALIZING ANTIBODY (AB17-IPL-1)” (THE UNIVERSITY OF BIRMINGHAM, priority 2022, published 2026).

No constants are given. Whether binding was seen depends on the method and setting. Some entries that bind do so weakly or less than the wild type.

The target of the assay is FM-0410 peptide (Ac-…). Briefly: hybridoma selection by ELISA against the peptide; no number given. In general terms: ELISA stands for enzyme-linked immunosorbent assay.

B1: Ab17-IPL-1 (antibody, mouse IgG1, kappa, V domains shown)
VH: EVILVESGGGLVKPGGSLKLSCAASGFTFSSYAMSWVRQTPEKRLEWVATITGGGTYIYYPDSVKGRFTISRDNAKNTLYLQMSSLRSEDTAMYFCARIYGRNYYFDYWGQGTTLTVSS
VL: QIVLTQSPAIMSASLGEEITLTCSANSSVTYMHWYQQKSGTSPKLLIYSTSNLASGVPSRFSGSGSGTFYSLTISSVEAEDAADYYCHQWSSYRTFGGGTKLEIQR
As for B1, the binding result is given as “binds”.
